Results as given in publication PMC7603469, “The biologically functional identification of a novel TIM3-binding peptide P26 in vitro and in vivo” (Cancer Chemotherapy and Pharmacology, 2020).
No constants are given. Whether binding was seen depends on the method and setting. Some entries that bind do so weakly or less than the wild type.

Protein sequences, listed by entry. Tags and fused reporters are not part of them. Residues count along the entry.
UniProt Q8TDQ0, residues 22-301: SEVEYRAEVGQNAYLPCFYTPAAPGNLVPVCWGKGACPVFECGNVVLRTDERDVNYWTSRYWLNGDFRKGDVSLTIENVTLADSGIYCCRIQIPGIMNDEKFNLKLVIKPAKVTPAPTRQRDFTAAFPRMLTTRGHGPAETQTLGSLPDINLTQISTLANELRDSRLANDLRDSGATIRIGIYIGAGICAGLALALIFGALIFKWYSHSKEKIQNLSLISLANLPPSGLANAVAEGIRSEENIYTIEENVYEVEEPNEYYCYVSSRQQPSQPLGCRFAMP

Molecular target: human TIM3 stably expressed on 293T cells (293T-TIM3) (human) (UniProt Q8TDQ0)
Experiment: flow cytometry on cells; 2 × 10^6 293T-TIM3 or 293T cells, blocked with 1% BSA-PBS, incubated 30 min at room temperature with FITC-conjugated P26 (25 and 50 µg/mL) and/or Gal-9 (10 µg/mL); only the binder purified

- binding: binds
Substance: FITC-Gal-9 (from UniProt O00182 1-355) (ligand)
